For experiment [1], the target named is T1, Flag epitope-tagged JNK1 (cell lysate) (human, UniProt P45983-2 1-384, limits assumed).
T1 construct: written N-terminal here
Description: peptide competition of GST-JIP-1 (127-281) pull-down of JNK1, immunoblot. (In western blotting, separated proteins are transferred to a membrane and probed.)

The chains behind the UniProt entries cited, without tags or fusion partners. Where a name states a change or a piece, a line headed by the entry shows the natural chain unless it says otherwise. A line that says so, or that is headed by a name, gives the form on record, which may keep a tag or linker.
Flag epitope-tagged JNK1 (cell lysate) (P45983-2, form named): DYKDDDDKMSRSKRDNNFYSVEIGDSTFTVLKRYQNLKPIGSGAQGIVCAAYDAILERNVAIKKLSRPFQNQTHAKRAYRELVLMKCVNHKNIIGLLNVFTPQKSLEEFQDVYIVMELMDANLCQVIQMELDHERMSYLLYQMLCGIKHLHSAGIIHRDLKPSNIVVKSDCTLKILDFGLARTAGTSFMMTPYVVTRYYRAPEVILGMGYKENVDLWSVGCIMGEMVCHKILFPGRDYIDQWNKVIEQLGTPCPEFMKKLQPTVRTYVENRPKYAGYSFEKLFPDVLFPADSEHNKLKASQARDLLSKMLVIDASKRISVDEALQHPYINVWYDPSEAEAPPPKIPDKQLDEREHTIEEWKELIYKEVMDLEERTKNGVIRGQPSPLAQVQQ

Experiment [2] deals with T1, Flag epitope-tagged JNK1 (cell lysate). Description: peptide competition (0, 4, 8, 16, 32, 64 µg/ml) of GST-JIP-1 (127-281) pull-down of Flag-JNK, immunoblot.
For experiment [3] the target is unchanged. Description: GST pull-down from cell lysate, immunoblot.

No constants are given. Whether binding was seen depends on the method and setting. In cells and extracts the contact can be indirect. Some binding calls cover weakened binding; strength is not graded here. For part of these data: Tags and fused reporters may be left off the sequences shown.

As for SGDTYRPKRPTTLNLFPQVPRSQDTLN [synthetic peptide corresponding to JIP-1 residues 148-174], the binding result in experiment [1] and in experiment [2] was “binds” in each case.

In the case of PKAESNQDPAPRSQGQGPGTGSGDTYRPKRPTTLNLF (peptide, not shown: a dimerising Fc or GST) [GST fusion protein containing residues 127-163 of JIP-1], in experiment [3], the binding result is given as “binds”.

(Values after patent US20070003517A1 (UNIVERSITY OF MASSACHUSETTS, published 2007).)
